From patent publication US20150359884A1, “MULTI-PHOTON ISOMERISATION OF COMBRETASTATINS AND THEIR USE IN THERAPY” (priority 2011, published 2015)

What was measured:
[1] = system: Chinese hamster ovary (CHO) cells; assay: Fluorescence lifetime imaging (FLIM) of uptake and intracellular concentration in CHO cells; settings: 2PE 628 nm
Procedure: (§1) Both HeLa and Chinese hamster ovary (CHO) cells were obtained from the European Collection of Cell Cultures. HeLa cells were cultured in MEM medium (Gibco) containing 10% foetal calf serum, penicillin (100 units/mL), streptomycin (100 μg/mL) and glutamine (2 mM). CHO cells were cultured in DMEM (Gibco) with the same additions as for the HeLa cells. For microscopy the adherent cell cultures were grown in 35 mm diameter glass-bottom culture dishes with optical quality glass (MatTek Corporation) and incubated at 37° C. in a humidified atmosphere containing 5% CO2. Human umbilical vein endothelial cells (HUVECs) were obtained from TCS Cellworks. HUVECs were sub-cultured in basal medium (TCS Cellworks) supplemented with antibiotic supplement/amphotericin-B, following the detailed guidelines provided by TCS Cellworks.
The fluorescence lifetime imaging system with multiphoton excitation employed lasers for multiphoton excitation consisting of a Ti:Sapphire laser, tuneable between 700 and 1000 nm and providing ca 180 fs pulses at 76 MHz, and an optical parametric oscillator (OPO) pumped by a second Ti:Sapphire laser source. […] Using the various microscope ports it was possible to record the fluorescence in a number of ways. The fluorescence signal at one port was relayed to a spectrometer (Acton 275) and CCD setup (Andor iDUS) so that emission spectra and intensities could be recorded. Alternatively the fluorescence signal could be routed via a second port to a time-correlated single photon counting (TCSPC) system (Becker and Hickl SPC-830) allowing fluorescence lifetime measurements and fluorescence lifetime imaging (FLIM), using Becker and Hickl software (SPCImage) for analysis. In FLIM mode the fluorescence was isolated by a suitable narrowband interference filter (400IU25 together with BG3 (Comar)). […] Two photon cross sections were determined using a reference fluorophore as a two photon standard as described by Mathai et al., employing published values of the two-photon cross section for 9-chloroanthracene. […]

[2] = system: HeLa cells; assay: Fluorescence lifetime imaging (FLIM) of uptake and intracellular concentration in HeLa cells; settings: 2PE 628 nm
Procedure: as §1, with “HUVECs were sub-cultured in basal medium (TCS Cellworks) supplemented with antibiotic supplement/amphotericin-B, following the detailed guidelines provided by TCS Cellworks.” left out
The fluorescence lifetime imaging system with multiphoton excitation employed lasers for multiphoton excitation consisting of a Ti:Sapphire laser, tuneable between 700 and 1000 nm and providing ca 180 fs pulses at 76 MHz, and an optical parametric oscillator (OPO) pumped by a second Ti:Sapphire laser source. […] Using the various microscope ports it was possible to record the fluorescence in a number of ways. The fluorescence signal at one port was relayed to a spectrometer (Acton 275) and CCD setup (Andor iDUS) so that emission spectra and intensities could be recorded. […] In FLIM mode the fluorescence was isolated by a suitable narrowband interference filter (400IU25 together with BG3 (Comar)). […]

[3] = system: human umbilical vein endothelial cells (HUVECs); assay: Fluorescence lifetime imaging (FLIM) of uptake and intracellular concentration in HUVECs; assay type: cell-based; settings: HUVEC
Text: Cell images were overlaid using Adobe Photoshop CS3.
Z-CA4 and analogues exert their anticancer activity by preventing the process of angiogenesis in which a growing tumour is supplied with new vasculature for the supply of nutrients via the bloodstream. We have therefore studied interactions between combretastatins and cultured HUVECs. […] Nevertheless it was possible to obtain images of cells after uptake upon E-combretastatin addition to the supporting medium at relatively low concentrations. […] In addition there are some punctate structures apparent in the images that appear to correlate with lipid droplets identified by Nile Red staining of the same cell. At 37° C. exact co-localization of the sequential images of combretastatin fluorescence and Nile Red labelled lipid droplets, obtained using the two different imaging systems attached to the microscope, is not possible because of the Brownian motion and the occasional rapid saltation of these structures that occur as a result of their transport upon the cellular microtubule network. The fluorescence lifetime distribution of intracellular E-CA4F observed in this cell simultaneously labelled with Nile Red peaks at ˜950 ps. […] The long lifetime of E-CA4F fluorescence in the HUVEC cell indicates a viscous environment for E-CA4F within the cell which is consistent with a lipidic location such as a membrane or lipid droplet. […]

Structure (SMILES)	Peak (maximum) in the intracellular fluorescence lifetime distribution [1]	Peak in the intracellular fluorescence lifetime distribution ([2]; 100 μmol dm^−3 in medium) [ps]	Peak in the intracellular fluorescence lifetime distribution ([2]; 50 μmol dm^−3 in medium) [ns]	Peak of intracellular fluorescence lifetime distribution ([3]; 5 μM, 37° C., 60 min, simultaneously labelled with Nile Red) [ps]	Peak of intracellular fluorescence lifetime distribution ([3]; absence of Nile Red) [ps]
COc1ccc(/C=C/c2cc(OC)c(OC)c(OC)c2)cc1N [E-ACA, (E)-1-(3′-Amino-4′-methoxyphenyl)-2-(3″,4″,5″-trimethoxyphenyl)ethene]	2.15 ns				
COc1ccc(/C=C/c2cc(OC)c(OC)c(OC)c2)cc1O [E-CA4, (E)-1-(3′,4′,5′-Trimethoxyphenyl)-2-(4″-methoxy-3″-hydroxy-phenyl)ethene]		900			
COc1ccc(/C=C/c2cc(OC)c(OC)c(OC)c2)cc1F [E-CA4F, (E)-1-(3′,4′,5′-trimethoxyphenyl)-2-(3″-fluoro-4″-methoxyphenyl)ethene]	very similar lifetime distribution		1.1	~950	1100
COc1cc(/C=C/c2ccc(N(C)C)cc2)cc(OC)c1OC [E-DMAC, (E)-1-(3′,4′,5′-Trimethoxyphenyl)-2-(4″-dimethylamino-phenyl)ethene]	1.07 ns				
